No constants are given. Whether binding was seen depends on the method and setting. Binding seen in cells or lysates may run through a third protein. Some binding calls cover weakened binding; strength is not graded here.
Molecular target: BiP-FLAG (BiP/GRP78 with a 3xFLAG tag inserted just upstream of the KDEL signal) (mouse) (UniProt P20029)
Assay: co-IP

Chains of the proteins cited; added tags and fusions are not shown. Residues count along the entry.
UniProt P20029, residues 20-655: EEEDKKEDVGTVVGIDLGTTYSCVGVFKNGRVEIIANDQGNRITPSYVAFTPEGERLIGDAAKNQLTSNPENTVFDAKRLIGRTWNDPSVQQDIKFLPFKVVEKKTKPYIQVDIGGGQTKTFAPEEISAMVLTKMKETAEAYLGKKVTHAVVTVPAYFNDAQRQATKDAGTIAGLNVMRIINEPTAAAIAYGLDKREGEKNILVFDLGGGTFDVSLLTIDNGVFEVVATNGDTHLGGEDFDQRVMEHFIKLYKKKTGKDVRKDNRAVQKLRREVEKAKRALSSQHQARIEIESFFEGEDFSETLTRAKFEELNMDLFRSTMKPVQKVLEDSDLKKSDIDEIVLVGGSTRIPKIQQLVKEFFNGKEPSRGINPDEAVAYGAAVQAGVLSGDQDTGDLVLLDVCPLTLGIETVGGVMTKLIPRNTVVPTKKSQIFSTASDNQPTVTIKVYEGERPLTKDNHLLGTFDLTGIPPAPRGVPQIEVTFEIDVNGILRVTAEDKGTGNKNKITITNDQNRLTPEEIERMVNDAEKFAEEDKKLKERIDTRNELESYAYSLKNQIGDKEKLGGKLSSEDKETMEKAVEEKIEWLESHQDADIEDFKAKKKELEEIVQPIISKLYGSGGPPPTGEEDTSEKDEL
UniProt Q99KV1, residues 23-358: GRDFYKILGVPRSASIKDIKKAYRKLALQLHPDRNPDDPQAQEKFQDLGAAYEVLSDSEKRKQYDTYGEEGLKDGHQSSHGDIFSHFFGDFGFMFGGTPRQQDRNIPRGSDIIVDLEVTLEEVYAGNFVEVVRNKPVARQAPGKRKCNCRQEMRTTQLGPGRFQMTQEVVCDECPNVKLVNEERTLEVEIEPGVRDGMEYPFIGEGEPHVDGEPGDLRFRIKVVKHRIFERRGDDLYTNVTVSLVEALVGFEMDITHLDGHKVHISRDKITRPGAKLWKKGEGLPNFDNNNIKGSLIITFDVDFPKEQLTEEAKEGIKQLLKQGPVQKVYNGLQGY
UniProt P27773, residues 25-505: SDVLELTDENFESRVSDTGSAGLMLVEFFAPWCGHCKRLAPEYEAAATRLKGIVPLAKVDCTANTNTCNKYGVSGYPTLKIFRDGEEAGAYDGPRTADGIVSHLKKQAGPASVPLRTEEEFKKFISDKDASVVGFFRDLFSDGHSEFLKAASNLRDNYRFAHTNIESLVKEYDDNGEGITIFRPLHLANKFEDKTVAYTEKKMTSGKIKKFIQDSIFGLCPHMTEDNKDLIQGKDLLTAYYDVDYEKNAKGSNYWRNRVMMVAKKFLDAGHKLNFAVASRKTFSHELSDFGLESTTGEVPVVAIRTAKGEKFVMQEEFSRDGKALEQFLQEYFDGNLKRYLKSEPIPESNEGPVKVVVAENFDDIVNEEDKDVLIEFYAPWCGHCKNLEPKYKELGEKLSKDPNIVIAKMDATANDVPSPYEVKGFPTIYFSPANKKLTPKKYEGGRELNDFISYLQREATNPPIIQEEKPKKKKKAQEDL

| binding | Substance |
| --- | --- |
| binds | ERdj3 (from UniProt Q99KV1 23-358) |
| no binding | PDIA3 (from UniProt P27773 25-505) |

Reference: doi:10.1101/2020.01.01.892539
